# Reference: PubChem BioAssay AID493014 (National Center for Advancing Translational Sciences (NCATS), 2011)
# This is one part of the list. Shown are side measurements of this screen, not its main read-out; they come without a call. The list favours compounds with an active or inconclusive main result. The note in brackets gives the kind of curve behind each potency; many fits are weak.
# Assay: qHTS Assay to Find Inhibitors of Chronic Active B-Cell Receptor Signaling
# Details: ABC-DLBCL IkBa-CBG/CBR reporter, luminescence ratio (green luciferase fused to IkBa over red control in TMD8 lymphoma cells), 4 h
# Outline: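 Concentration-response series (up to 46 uM) were applied to TMD8 dual-reporter cells for 4 h at 37C with doxycycline. Green/red ratio, after filter-overlap correction, defined %Activity; red signal alone was normalised to basal cells and zero luminescence.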
# [1] = measured here: CBR red luminescence, cell number
# [2] = measured here: IkBa-CBG green luminescence
smiles,measurement,setting,value
CCOC(=O)c1c(NC(N)=O)nc2n1CCC2,AC50,[1],"14.1 µM [falling, partial curve, poor fit]"
CC(=O)c1cccc(NS(=O)(=O)c2ccc(N/C=C\C(=O)c3ccc(F)cc3)cc2)c1,AC50,[1],"7.94 µM [falling, partial curve, poor fit]"
N=c1c2c(ncn1CCCO)Oc1c(ccc3ccccc13)C2c1ccccc1 (stereo unspecified),AC50,[1],"10 µM [falling, partial curve]"
O=C(OCCCN1C(=O)c2ccccc2C1=O)c1ccco1,AC50,[1],"16.4 µM [rising, single point]"
Cc1ccc(-c2nnc(-c3ccccc3)o2)cc1,AC50,[1],"10.3 µM [falling, partial curve, poor fit]"
COC(=O)c1sc(NC(=O)COc2ccccc2OC)nc1C,AC50,[1],"0.259 µM [falling, full curve, poor fit]"
[O-][n+]1c(/C=C/c2ccccc2)ccc2ccccc21,AC50,[1],"3.98 µM [falling, partial curve]"
CN(Cc1ccc(Cl)c(Cl)c1)C(=O)CN1C(=O)NC2(CCCC2)C1=O,AC50,[1],"0.731 µM [rising, partial curve, poor fit]"
Cc1ccc(NC(=O)COC(=O)Cc2csc(-c3cccc(F)c3)n2)cc1C,AC50,[1],"29.1 µM [rising, single point]"
C=CC(=O)Nc1ccc(CN2C(=O)N(c3c(Cl)c(OC)cc(OC)c3Cl)Cc3cnc(NCCCCN(CC)CC)nc32)cc1,AC50,[1],"16.4 µM [falling, single point]"
N#Cc1ccc(CSc2nnc(NC(=O)c3ccc(=O)[nH]c3)s2)cc1,AC50,[1],"20 µM [rising, single point]"
COc1ccc(Cn2ccnc2SCC(=O)Nc2ccccc2OC)cc1,AC50,[1],"5.62 µM [rising, single point]"
COc1ccccc1C(=O)Nc1cccc(NC(=O)c2ccccc2C)c1,AC50,[1],"14.1 µM [falling, single point]"
C=CCn1c(=O)c(C(=O)OCC)c(O)c2ccccc21,AC50,[1],"12.6 µM [falling, partial curve, poor fit]"
COC(=O)c1ccc2nc(NC(=O)C(C)(C)C)sc2c1,AC50,[1],"15.8 µM [falling, partial curve]"
COc1cccc(-c2nc(NC3CCCC3)c3ccccc3n2)c1O,AC50,[1],"12.6 µM [falling, partial curve]"
CN1CCN(c2ccc(-c3cc(O)c4ncccc4c3)cc2)CC1,AC50,[1],"29.1 µM [rising, single point]"
Cc1ccc(CNC(=O)CN2C(=O)CSc3ccc(S(=O)(=O)N4CCC(C)CC4)cc32)cc1,AC50,[1],"7.94 µM [falling, partial curve]"
CS(=O)(=O)c1ccc(Cl)c(NC(=O)COC(=O)CCN=C2NS(=O)(=O)c3ccccc32)c1,AC50,[1],"29.1 µM [rising, single point]"
CCn1ncc(/C=C2/SC(=S)NC2=O)c1C,AC50,[1],"1.64 µM [rising, full curve]"
Cc1cc[n+](C2=C([O-])c3ccccc3C(=O)/C2=N\S(=O)(=O)c2cccs2)cc1C,AC50,[1],"20.6 µM [falling, single point]"
CN(C)c1ccc(NC2=C(Cl)C(=O)c3ccccc3C2=O)cc1,AC50,[1],"20.6 µM [falling, single point]"
C=C(C)c1cccc(C(C)(C)NC(=O)NNC(=O)c2ccccc2O)c1,AC50,[1],"1.58 µM [rising, partial curve, poor fit]"
Nc1nc(SCCO)[nH]c(=O)c1NC(=O)c1ccc(Br)o1,AC50,[1],"20 µM [falling, single point]"
CCOC(=O)C1CCCN(C(=O)c2cc(Nc3ccc(OC)c(OC)c3)nc3ccccc23)C1 (stereo unspecified),AC50,[1],"35.5 µM [falling, single point]"
Cc1cc(C)nc(N2CCCC(C(=O)NCCc3cccc(F)c3)C2)n1 (stereo unspecified),AC50,[1],"6.51 µM [falling, partial curve, poor fit]"
Cc1ccc2nc(-c3ccccn3)cc(C(=O)NC3CCN(C)CC3)c2c1,AC50,[1],"0.116 µM [rising, full curve, poor fit]"
CCCn1c2ccccc2c2cnn(CC(=O)N3CCN(c4ccccc4)CC3)c(=O)c21,AC50,[1],"12.6 µM [rising, partial curve, poor fit]"
COc1ccccc1Nc1ccc(Nc2ccccc2OC)nn1,AC50,[1],"2.59 µM [falling, full curve]"
O=C1CCc2cc(OCCCCc3nnnn3C3CCCCC3)ccc2N1,AC50,[1],"9.2 µM [rising, partial curve]"
same,AC50,[2],"20.6 µM [falling, single point]"
COc1ccc(-c2[nH]c(-c3ccccc3)nc2SCC(=O)Nc2nccs2)cc1,AC50,[1],"18.4 µM [falling, single point]"
CCOc1cc(C2c3c(n[nH]c3C)C(=O)N2c2ccc(Br)cc2)ccc1O (stereo unspecified),AC50,[1],"29.1 µM [falling, single point]"
Cc1ccccc1C(=O)N1CCC(C(=O)Nc2ccc(S(=O)(=O)N3CCCCC3)cc2)CC1,AC50,[1],"35.5 µM [falling, single point]"
Cc1cccc(OCC(=O)Nc2cccc(-c3nnc(-c4ccccc4)o3)c2)c1C,AC50,[1],"5.17 µM [rising, single point]"
C=CCN(CC=C)CCOc1ccc(OC(C)C)cc1,AC50,[1],"11.2 µM [rising, partial curve, poor fit]"
C/C(=C\C(=S)Nc1ccccc1)Nc1ccc2ccccc2c1,AC50,[1],"29.1 µM [falling, single point]"
CCOC(=O)c1c(N)nn(C(C)=O)c1-c1ccccc1,AC50,[1],"11.2 µM [falling, partial curve, poor fit]"
CCOC(=O)/C=C/C(=O)Nc1ccccc1-c1ccccc1NC(=O)/C=C/C(=O)OCC,AC50,[1],"29.1 µM [falling, single point]"
same,AC50,[2],"23.1 µM [rising, partial curve, poor fit]"
Cc1ccc(N/C=C/C(=O)c2cccs2)cc1,AC50,[1],"15.8 µM [falling, single point]"
CN(CC(=O)Nc1ccccc1Br)C(=O)c1ccccc1-c1nc2ccccc2s1,AC50,[1],"14.1 µM [rising, partial curve, poor fit]"
CC(C(=O)NC(=O)NC1CCCCC1)N1CCN(c2ccc(O)cc2)CC1 (stereo unspecified),AC50,[1],"18.4 µM [rising, single point]"
Cc1ccccc1/C=N/Nc1nc2ccccc2c(=O)n1O,AC50,[1],"11.2 µM [falling, partial curve, poor fit]"
Clc1ccc(-c2cn3cc(Br)ccc3n2)cc1Cl,AC50,[1],"16.4 µM [falling, single point]"
O=C(NCCc1ccccc1)C(=O)NCC1OCCCN1S(=O)(=O)c1cccs1 (stereo unspecified),AC50,[1],"35.5 µM [rising, single point]"
CN(C)C(=O)N1CCC(C(=O)NCc2ccccc2)CC1,AC50,[1],"2.06 µM [rising, full curve, poor fit]"
COc1cc(/C=N/NC(=O)c2cccc(NC(=O)c3ccccc3C)c2)ccc1O,AC50,[1],"25.1 µM [falling, single point]"
O=C(Nc1ccc(Cl)cn1)c1ccc2c(c1)OCCO2,AC50,[1],"7.08 µM [falling, partial curve]"
Cc1ccc(C)c2[nH]c(=O)c(C(c3nnnn3Cc3ccco3)N3CCc4ccccc4C3)cc12 (stereo unspecified),AC50,[1],"14.1 µM [falling, partial curve, poor fit]"
O=C(C1=C[C@@H](c2ccc(C(F)(F)F)cc2)C[C@@H](OCCCCO)O1)N1CCN(Cc2ccccc2)CC1,AC50,[1],"3.98 µM [falling, partial curve]"
CCNC(=S)N/N=C/c1ccc(F)cc1,AC50,[1],"12.6 µM [rising, partial curve, poor fit]"
same,AC50,[2],"35.5 µM [falling, partial curve, poor fit]"
O=C(Nc1nc(-c2ccccn2)cs1)c1ccc([N+](=O)[O-])o1,AC50,[1],"35.5 µM [falling, single point]"
O=C(Nc1ccccc1F)C1CCN(C(=O)Cc2ccccc2)CC1,AC50,[1],"0.00461 µM [falling, full curve, poor fit]"
O=C(CNC(=O)c1cccs1)c1ccc(Br)cc1,AC50,[1],"11.2 µM [falling, partial curve]"
COc1ccc(Cl)cc1C(=O)Nc1cccc(-c2ccc3nncn3n2)c1,AC50,[1],"6.31 µM [falling, partial curve, poor fit]"
COc1ccccc1N(CC(=O)Nc1ccc(Br)cc1F)S(=O)(=O)c1cccs1,AC50,[1],"6.51 µM [falling, partial curve]"
CS(=O)(=O)Nc1ccc(S(=O)(=O)NC2CCCCC2)cc1,AC50,[1],"35.5 µM [rising, single point]"
Cc1ccc(C)c(SCC(=O)Nc2nnc(-c3ccccc3)o2)c1,AC50,[1],"5.17 µM [rising, partial curve, poor fit]"
O=C(CCc1nc2ccccc2c(=O)[nH]1)NCc1cccc(Cl)c1,AC50,[1],"29.1 µM [falling, single point]"
Cc1ccc(/C=C2\SC(=S)N(c3c(C)n(C)n(-c4ccccc4)c3=O)C2=O)cc1,AC50,[1],"11.2 µM [falling, partial curve]"
COC(=O)c1cc(NC(=O)Cc2cc(OC)c(OC)c(OC)c2)cc(C(=O)OC)c1,AC50,[1],"25.1 µM [falling, single point]"
CCn1nc(C(=O)Nc2ccc(C)c(C)c2)c(Cl)c1Cl,AC50,[1],"5.01 µM [rising, full curve]"
CCN(CC)CCCN=Cc1c(O)n(Cc2ccccc2)c(=O)c2ccccc12,AC50,[1],"2.59 µM [rising, single point]"
O=C(c1cc2sccc2n1Cc1ccc(F)cc1)N1CCN(c2nc3ccccc3s2)CC1,AC50,[1],"0.0116 µM [rising, full curve, poor fit]"

# Reformatted with bars between the fields: entries from further up.
smiles | measurement | setting | value
CCOC(=O)c1c(N)nn(C(C)=O)c1-c1ccccc1 | AC50 | [1] | 11.2 µM [falling, partial curve, poor fit]
CCOC(=O)/C=C/C(=O)Nc1ccccc1-c1ccccc1NC(=O)/C=C/C(=O)OCC | AC50 | [1] | 29.1 µM [falling, single point]
same | AC50 | [2] | 23.1 µM [rising, partial curve, poor fit]
Cc1ccc(N/C=C/C(=O)c2cccs2)cc1 | AC50 | [1] | 15.8 µM [falling, single point]
